# Measured values as given in patent publication US20230024058A1, “COMPOSITION THAT PROMOTE PRO-RESOLVING MEDIATORS” (ACASTI PHARMA INC., priority 2020, published 2023).
# At least one structure is not confirmed: it was looked up by name or label, or the drawing left a doubt.
# Tested on: C57BL/6J mice fed with high-fat high-sugar (HFHS) diet
# Test: Plasma lipidomics (EPA, DHA, resolvin and protectin metabolites) in prediabetes mouse model
# Format: in vivo
# Conditions: HF-fed mice
smiles,measurement,setting,value
CC/C=C\C/C=C\C/C=C\C/C=C\C/C=C\CCCC(=O)OCC [icosapent ethyl],effect on PDX,icosapent ethyl (Vascepa 4 g/day),virtually no response
same,plasma 18RS-HEPE,"versus control (untreated control and metformin groups), FIG. 2B",significantly increased
